{"source": "PubChem BioAssay AID1508597 (Cure First, 2020)", "screen": "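Genes whose silencing sensitises or protects ovarian cancer cells against rucaparib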 (primary screen)", "cells": "human ovarian carcinoma lines grown from tumours: OCI-P5x (papillary serous) and OCI-C5x (clear cell)", "reagent": "siRNA pool against human genes, 1.25 pmol siRNA per well", "time to read-out": "72 h or 96 h, depending on the cell culture", "conditions": "rucaparib 20 µM (about IC30) or vehicle, present until read-out", "measurement": "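ATP luminescence measured at 72 or 96 h according to the culture, then normalised and expressed as percent viability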", "direction": "viability, normalised: higher = more viable cells remaining", "call rule": "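Active when normalised viability falls below 80 percent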", "calls": "active = viability under 80%; inactive = viability 80% or more", "note": "In all, the deposit lists about 2,100 reagents; shown is an unselected part. 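Calls flag viability under 80% in either arm, not effects specific to rucaparib; the reference for percent is not stated.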 The record does not give: the 100% reference."}
The opening 4 records, ahead of the listing:
{"gene": "SUPT4H1", "rucaparib or vehicle": "Rucaparib", "cell line": "OCI-C5x (clear cell)", "technical replicate": "1", "viability, normalised (%)": 51.3, "activity call": "active"}
{"gene": "SUPT4H1", "rucaparib or vehicle": "Rucaparib", "cell line": "OCI-C5x (clear cell)", "technical replicate": "2", "viability, normalised (%)": 45, "activity call": "active"}
{"gene": "SUPT4H1", "rucaparib or vehicle": "Rucaparib", "cell line": "OCI-C5x (clear cell)", "technical replicate": "3", "viability, normalised (%)": 62.4, "activity call": "active"}
{"gene": "SUPT4H1", "rucaparib or vehicle": "Rucaparib", "cell line": "OCI-P5x (serous)", "technical replicate": "1", "viability, normalised (%)": 55.5, "activity call": "active"}

The listing, repeating the preview:
{"gene": "SUPT4H1", "rucaparib or vehicle": "Rucaparib", "cell line": "OCI-C5x (clear cell)", "technical replicate": "1", "viability, normalised (%)": 51.3, "activity call": "active"}
{"gene": "SUPT4H1", "rucaparib or vehicle": "Rucaparib", "cell line": "OCI-C5x (clear cell)", "technical replicate": "2", "viability, normalised (%)": 45, "activity call": "active"}
{"gene": "SUPT4H1", "rucaparib or vehicle": "Rucaparib", "cell line": "OCI-C5x (clear cell)", "technical replicate": "3", "viability, normalised (%)": 62.4, "activity call": "active"}
{"gene": "SUPT4H1", "rucaparib or vehicle": "Rucaparib", "cell line": "OCI-P5x (serous)", "technical replicate": "1", "viability, normalised (%)": 55.5, "activity call": "active"}
{"gene": "SUPT4H1", "rucaparib or vehicle": "Rucaparib", "cell line": "OCI-P5x (serous)", "technical replicate": "2", "viability, normalised (%)": 62.8, "activity call": "active"}
{"gene": "SUPT4H1", "rucaparib or vehicle": "Rucaparib", "cell line": "OCI-P5x (serous)", "technical replicate": "3", "viability, normalised (%)": 69.2, "activity call": "active"}
{"gene": "SUPT4H1", "rucaparib or vehicle": "Vehicle", "cell line": "OCI-C5x (clear cell)", "technical replicate": "1", "viability, normalised (%)": 56.3, "activity call": "active"}
{"gene": "SUPT4H1", "rucaparib or vehicle": "Vehicle", "cell line": "OCI-C5x (clear cell)", "technical replicate": "2", "viability, normalised (%)": 67.8, "activity call": "active"}
{"gene": "SUPT4H1", "rucaparib or vehicle": "Vehicle", "cell line": "OCI-C5x (clear cell)", "technical replicate": "3", "viability, normalised (%)": 40.4, "activity call": "active"}
{"gene": "SUPT4H1", "rucaparib or vehicle": "Vehicle", "cell line": "OCI-P5x (serous)", "technical replicate": "1", "viability, normalised (%)": 72.4, "activity call": "active"}
{"gene": "SUPT4H1", "rucaparib or vehicle": "Vehicle", "cell line": "OCI-P5x (serous)", "technical replicate": "2", "viability, normalised (%)": 68, "activity call": "active"}
{"gene": "SUPT4H1", "rucaparib or vehicle": "Vehicle", "cell line": "OCI-P5x (serous)", "technical replicate": "3", "viability, normalised (%)": 69.5, "activity call": "active"}
{"gene": "TBL1X", "rucaparib or vehicle": "Rucaparib", "cell line": "OCI-C5x (clear cell)", "technical replicate": "1", "viability, normalised (%)": 52.9, "activity call": "active"}
{"gene": "TBL1X", "rucaparib or vehicle": "Rucaparib", "cell line": "OCI-C5x (clear cell)", "technical replicate": "2", "viability, normalised (%)": 61.3, "activity call": "active"}
{"gene": "TBL1X", "rucaparib or vehicle": "Rucaparib", "cell line": "OCI-C5x (clear cell)", "technical replicate": "3", "viability, normalised (%)": 39.7, "activity call": "active"}
{"gene": "TBL1X", "rucaparib or vehicle": "Rucaparib", "cell line": "OCI-P5x (serous)", "technical replicate": "1", "viability, normalised (%)": 71.4, "activity call": "active"}
{"gene": "TBL1X", "rucaparib or vehicle": "Rucaparib", "cell line": "OCI-P5x (serous)", "technical replicate": "2", "viability, normalised (%)": 70.7, "activity call": "active"}
{"gene": "TBL1X", "rucaparib or vehicle": "Rucaparib", "cell line": "OCI-P5x (serous)", "technical replicate": "3", "viability, normalised (%)": 82.4, "activity call": "inactive"}
{"gene": "TBL1X", "rucaparib or vehicle": "Vehicle", "cell line": "OCI-C5x (clear cell)", "technical replicate": "1", "viability, normalised (%)": 60.6, "activity call": "active"}
{"gene": "TBL1X", "rucaparib or vehicle": "Vehicle", "cell line": "OCI-C5x (clear cell)", "technical replicate": "2", "viability, normalised (%)": 35.8, "activity call": "active"}
{"gene": "TBL1X", "rucaparib or vehicle": "Vehicle", "cell line": "OCI-C5x (clear cell)", "technical replicate": "3", "viability, normalised (%)": 42.2, "activity call": "active"}
{"gene": "TBL1X", "rucaparib or vehicle": "Vehicle", "cell line": "OCI-P5x (serous)", "technical replicate": "1", "viability, normalised (%)": 70, "activity call": "active"}
{"gene": "TBL1X", "rucaparib or vehicle": "Vehicle", "cell line": "OCI-P5x (serous)", "technical replicate": "2", "viability, normalised (%)": 73, "activity call": "active"}
{"gene": "TBL1X", "rucaparib or vehicle": "Vehicle", "cell line": "OCI-P5x (serous)", "technical replicate": "3", "viability, normalised (%)": 83.7, "activity call": "inactive"}
{"gene": "DRD1", "rucaparib or vehicle": "Rucaparib", "cell line": "OCI-C5x (clear cell)", "technical replicate": "1", "viability, normalised (%)": 53.9, "activity call": "active"}
{"gene": "DRD1", "rucaparib or vehicle": "Rucaparib", "cell line": "OCI-C5x (clear cell)", "technical replicate": "2", "viability, normalised (%)": 48.9, "activity call": "active"}
{"gene": "DRD1", "rucaparib or vehicle": "Rucaparib", "cell line": "OCI-C5x (clear cell)", "technical replicate": "3", "viability, normalised (%)": 50.4, "activity call": "active"}
{"gene": "DRD1", "rucaparib or vehicle": "Rucaparib", "cell line": "OCI-P5x (serous)", "technical replicate": "1", "viability, normalised (%)": 59.4, "activity call": "active"}
{"gene": "DRD1", "rucaparib or vehicle": "Rucaparib", "cell line": "OCI-P5x (serous)", "technical replicate": "2", "viability, normalised (%)": 68.4, "activity call": "active"}
{"gene": "DRD1", "rucaparib or vehicle": "Rucaparib", "cell line": "OCI-P5x (serous)", "technical replicate": "3", "viability, normalised (%)": 65.2, "activity call": "active"}
{"gene": "DRD1", "rucaparib or vehicle": "Vehicle", "cell line": "OCI-C5x (clear cell)", "technical replicate": "1", "viability, normalised (%)": 53.8, "activity call": "active"}
{"gene": "DRD1", "rucaparib or vehicle": "Vehicle", "cell line": "OCI-C5x (clear cell)", "technical replicate": "2", "viability, normalised (%)": 57.1, "activity call": "active"}
{"gene": "DRD1", "rucaparib or vehicle": "Vehicle", "cell line": "OCI-C5x (clear cell)", "technical replicate": "3", "viability, normalised (%)": 48, "activity call": "active"}
{"gene": "DRD1", "rucaparib or vehicle": "Vehicle", "cell line": "OCI-P5x (serous)", "technical replicate": "1", "viability, normalised (%)": 51.6, "activity call": "active"}
{"gene": "DRD1", "rucaparib or vehicle": "Vehicle", "cell line": "OCI-P5x (serous)", "technical replicate": "2", "viability, normalised (%)": 55.4, "activity call": "active"}
{"gene": "DRD1", "rucaparib or vehicle": "Vehicle", "cell line": "OCI-P5x (serous)", "technical replicate": "3", "viability, normalised (%)": 73.1, "activity call": "active"}
